Results on one substance are retold here after PMC12533200.

The chains behind the UniProt entries cited, without tags or fusion partners.
UniProt A5YKK6: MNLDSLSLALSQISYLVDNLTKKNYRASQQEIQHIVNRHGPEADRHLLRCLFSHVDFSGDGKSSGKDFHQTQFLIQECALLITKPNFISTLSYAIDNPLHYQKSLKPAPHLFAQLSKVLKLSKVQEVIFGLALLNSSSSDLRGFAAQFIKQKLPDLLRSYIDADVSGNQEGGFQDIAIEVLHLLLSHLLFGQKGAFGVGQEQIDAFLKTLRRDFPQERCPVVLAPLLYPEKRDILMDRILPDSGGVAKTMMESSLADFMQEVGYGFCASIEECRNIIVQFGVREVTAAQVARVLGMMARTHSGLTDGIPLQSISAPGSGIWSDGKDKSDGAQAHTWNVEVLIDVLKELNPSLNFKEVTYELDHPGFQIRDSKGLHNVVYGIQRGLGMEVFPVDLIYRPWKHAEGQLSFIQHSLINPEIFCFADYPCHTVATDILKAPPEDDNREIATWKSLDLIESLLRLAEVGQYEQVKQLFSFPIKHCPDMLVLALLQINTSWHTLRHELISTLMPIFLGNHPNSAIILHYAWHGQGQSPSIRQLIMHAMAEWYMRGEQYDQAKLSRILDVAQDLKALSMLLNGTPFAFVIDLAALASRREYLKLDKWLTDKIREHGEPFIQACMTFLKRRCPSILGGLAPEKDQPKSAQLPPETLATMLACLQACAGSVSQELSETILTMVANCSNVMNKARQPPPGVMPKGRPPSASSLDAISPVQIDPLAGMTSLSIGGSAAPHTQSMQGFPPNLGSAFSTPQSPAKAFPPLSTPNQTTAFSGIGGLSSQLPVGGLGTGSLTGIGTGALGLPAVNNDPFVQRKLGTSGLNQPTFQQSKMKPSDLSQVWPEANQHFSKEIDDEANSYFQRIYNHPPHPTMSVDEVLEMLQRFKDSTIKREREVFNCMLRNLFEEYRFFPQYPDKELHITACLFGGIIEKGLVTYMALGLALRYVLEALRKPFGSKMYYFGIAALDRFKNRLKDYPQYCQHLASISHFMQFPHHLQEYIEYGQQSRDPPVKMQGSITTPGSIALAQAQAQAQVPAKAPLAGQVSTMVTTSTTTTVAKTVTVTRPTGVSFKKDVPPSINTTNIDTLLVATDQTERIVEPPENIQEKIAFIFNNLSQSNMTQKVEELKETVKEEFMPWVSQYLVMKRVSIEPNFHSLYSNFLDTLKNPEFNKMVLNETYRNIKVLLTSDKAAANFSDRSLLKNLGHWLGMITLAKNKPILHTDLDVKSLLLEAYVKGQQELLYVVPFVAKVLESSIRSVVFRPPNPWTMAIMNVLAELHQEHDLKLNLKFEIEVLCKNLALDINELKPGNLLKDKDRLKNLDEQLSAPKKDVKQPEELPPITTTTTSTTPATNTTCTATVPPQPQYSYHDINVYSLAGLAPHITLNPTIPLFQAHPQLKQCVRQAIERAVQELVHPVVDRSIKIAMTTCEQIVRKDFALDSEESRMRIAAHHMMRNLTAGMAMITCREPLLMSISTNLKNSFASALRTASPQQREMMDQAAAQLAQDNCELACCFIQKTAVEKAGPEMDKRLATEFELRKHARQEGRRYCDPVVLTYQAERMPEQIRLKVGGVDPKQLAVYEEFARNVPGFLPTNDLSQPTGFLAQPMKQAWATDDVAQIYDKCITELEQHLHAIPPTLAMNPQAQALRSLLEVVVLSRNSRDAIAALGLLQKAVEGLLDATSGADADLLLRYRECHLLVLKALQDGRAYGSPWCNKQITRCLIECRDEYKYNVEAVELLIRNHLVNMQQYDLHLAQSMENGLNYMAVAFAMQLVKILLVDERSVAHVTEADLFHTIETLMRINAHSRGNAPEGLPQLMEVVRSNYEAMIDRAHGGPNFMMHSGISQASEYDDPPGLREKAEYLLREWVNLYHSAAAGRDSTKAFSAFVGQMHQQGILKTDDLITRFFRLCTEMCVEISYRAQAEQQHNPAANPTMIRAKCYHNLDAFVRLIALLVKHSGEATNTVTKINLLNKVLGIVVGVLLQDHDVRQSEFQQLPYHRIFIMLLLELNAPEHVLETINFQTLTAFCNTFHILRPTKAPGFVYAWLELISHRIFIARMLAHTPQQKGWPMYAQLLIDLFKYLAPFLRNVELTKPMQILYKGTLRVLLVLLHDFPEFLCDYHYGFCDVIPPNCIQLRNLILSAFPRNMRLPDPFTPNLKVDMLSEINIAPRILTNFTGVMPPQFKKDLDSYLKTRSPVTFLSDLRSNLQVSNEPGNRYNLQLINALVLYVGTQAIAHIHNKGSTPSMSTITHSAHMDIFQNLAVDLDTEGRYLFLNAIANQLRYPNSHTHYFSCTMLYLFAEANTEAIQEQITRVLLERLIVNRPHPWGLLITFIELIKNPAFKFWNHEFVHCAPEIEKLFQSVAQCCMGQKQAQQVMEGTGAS

This assay has as its target T1, Lethal(2) giant larvae protein homolog 2 (LLGL2), endogenous (human (endogenous in SW620 and RKO)) (UniProt Q6P1M3).
T1 sequence: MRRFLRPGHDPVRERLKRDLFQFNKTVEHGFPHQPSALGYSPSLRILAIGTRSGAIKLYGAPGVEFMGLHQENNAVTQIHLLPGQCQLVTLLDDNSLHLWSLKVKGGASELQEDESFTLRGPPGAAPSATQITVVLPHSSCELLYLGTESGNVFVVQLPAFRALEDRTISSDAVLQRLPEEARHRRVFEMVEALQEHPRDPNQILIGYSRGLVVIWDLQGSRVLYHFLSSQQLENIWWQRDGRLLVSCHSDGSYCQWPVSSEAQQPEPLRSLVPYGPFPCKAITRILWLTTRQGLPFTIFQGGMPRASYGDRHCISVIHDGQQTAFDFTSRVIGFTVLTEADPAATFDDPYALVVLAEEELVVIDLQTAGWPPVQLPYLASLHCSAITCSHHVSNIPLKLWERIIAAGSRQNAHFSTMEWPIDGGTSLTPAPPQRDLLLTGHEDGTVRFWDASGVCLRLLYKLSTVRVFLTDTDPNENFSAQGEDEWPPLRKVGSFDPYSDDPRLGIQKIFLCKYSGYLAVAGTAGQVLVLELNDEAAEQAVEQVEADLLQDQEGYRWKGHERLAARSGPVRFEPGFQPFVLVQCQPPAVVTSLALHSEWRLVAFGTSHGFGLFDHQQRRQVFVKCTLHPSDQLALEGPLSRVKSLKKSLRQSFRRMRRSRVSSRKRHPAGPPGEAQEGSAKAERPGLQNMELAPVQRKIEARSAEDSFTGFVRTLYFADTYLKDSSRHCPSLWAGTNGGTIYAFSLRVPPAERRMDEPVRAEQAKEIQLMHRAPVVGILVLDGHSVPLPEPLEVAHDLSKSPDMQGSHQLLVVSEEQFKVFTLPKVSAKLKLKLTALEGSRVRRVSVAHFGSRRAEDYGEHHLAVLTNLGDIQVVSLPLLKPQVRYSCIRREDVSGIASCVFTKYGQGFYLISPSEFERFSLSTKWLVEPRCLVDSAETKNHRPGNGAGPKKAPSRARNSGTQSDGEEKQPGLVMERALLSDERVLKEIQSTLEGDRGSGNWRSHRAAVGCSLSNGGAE
The assay can be described thus: affinity purification with mass spectrometry; shotgun mass spectrometry of proteins interacting with LLGL2; bait, cells and conditions not told.

No constants are given. Whether binding was seen depends on the method and setting. Binding seen in cells or lysates may run through a third protein. A yes stands for co-enrichment or nearness to the bait. Other partners may have been found.

Turning to “CCR4‐NOT transcription complex subunit 1 (CNOT1), endogenous (from UniProt A5YKK6 1-2376)”, the binding entry was “binds”.
